Measured values as given in paper PMC10055685.
Where two headings read alike, the source gives them in different places. These are yes or no findings as the source states them, for the method shown. In cells and extracts the contact can be indirect. A yes stands for co-enrichment or nearness to the bait. Other partners may have been found. For some assays here: No binding means not detected with the bait.

Sequences of proteins named here, by UniProt entry; tags and fusion partners are left off. A change or cut given only in a name is not applied to a line headed by its entry. Residues count along the entry.
UniProt P35240: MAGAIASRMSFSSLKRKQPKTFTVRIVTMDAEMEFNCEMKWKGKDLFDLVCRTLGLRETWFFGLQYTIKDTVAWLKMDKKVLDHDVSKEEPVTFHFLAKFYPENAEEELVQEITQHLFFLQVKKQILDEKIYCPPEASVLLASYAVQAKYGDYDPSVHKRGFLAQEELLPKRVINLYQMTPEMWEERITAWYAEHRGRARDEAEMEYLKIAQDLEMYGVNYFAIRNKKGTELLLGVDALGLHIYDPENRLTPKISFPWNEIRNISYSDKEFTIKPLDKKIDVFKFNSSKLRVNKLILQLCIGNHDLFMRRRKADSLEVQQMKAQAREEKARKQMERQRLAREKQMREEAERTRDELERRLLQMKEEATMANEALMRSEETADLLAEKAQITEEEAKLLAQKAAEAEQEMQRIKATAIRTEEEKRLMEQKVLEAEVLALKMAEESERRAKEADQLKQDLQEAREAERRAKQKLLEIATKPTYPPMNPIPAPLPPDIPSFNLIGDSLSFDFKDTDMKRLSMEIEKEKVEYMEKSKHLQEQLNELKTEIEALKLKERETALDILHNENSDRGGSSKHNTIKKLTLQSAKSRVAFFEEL
UniProt Q9Y2J4: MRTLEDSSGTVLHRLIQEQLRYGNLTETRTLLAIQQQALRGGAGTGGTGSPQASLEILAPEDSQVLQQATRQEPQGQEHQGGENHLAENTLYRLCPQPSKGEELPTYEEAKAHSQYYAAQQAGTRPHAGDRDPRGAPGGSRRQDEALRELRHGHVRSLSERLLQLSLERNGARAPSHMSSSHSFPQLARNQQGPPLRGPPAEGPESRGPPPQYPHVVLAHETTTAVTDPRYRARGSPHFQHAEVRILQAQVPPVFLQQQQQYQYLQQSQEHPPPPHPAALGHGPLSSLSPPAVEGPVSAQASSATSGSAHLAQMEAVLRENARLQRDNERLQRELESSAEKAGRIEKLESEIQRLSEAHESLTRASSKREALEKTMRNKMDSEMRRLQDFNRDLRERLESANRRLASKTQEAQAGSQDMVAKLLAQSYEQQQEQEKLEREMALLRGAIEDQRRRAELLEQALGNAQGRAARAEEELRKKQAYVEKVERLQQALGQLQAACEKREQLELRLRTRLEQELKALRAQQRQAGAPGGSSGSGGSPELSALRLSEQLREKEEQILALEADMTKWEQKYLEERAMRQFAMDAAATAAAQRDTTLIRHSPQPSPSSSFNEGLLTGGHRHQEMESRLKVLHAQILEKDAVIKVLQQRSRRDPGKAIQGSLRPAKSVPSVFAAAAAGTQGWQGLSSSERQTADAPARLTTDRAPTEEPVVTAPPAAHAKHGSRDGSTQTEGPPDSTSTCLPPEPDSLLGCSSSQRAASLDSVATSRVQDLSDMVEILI
UniProt Q14126, residues 50-1118: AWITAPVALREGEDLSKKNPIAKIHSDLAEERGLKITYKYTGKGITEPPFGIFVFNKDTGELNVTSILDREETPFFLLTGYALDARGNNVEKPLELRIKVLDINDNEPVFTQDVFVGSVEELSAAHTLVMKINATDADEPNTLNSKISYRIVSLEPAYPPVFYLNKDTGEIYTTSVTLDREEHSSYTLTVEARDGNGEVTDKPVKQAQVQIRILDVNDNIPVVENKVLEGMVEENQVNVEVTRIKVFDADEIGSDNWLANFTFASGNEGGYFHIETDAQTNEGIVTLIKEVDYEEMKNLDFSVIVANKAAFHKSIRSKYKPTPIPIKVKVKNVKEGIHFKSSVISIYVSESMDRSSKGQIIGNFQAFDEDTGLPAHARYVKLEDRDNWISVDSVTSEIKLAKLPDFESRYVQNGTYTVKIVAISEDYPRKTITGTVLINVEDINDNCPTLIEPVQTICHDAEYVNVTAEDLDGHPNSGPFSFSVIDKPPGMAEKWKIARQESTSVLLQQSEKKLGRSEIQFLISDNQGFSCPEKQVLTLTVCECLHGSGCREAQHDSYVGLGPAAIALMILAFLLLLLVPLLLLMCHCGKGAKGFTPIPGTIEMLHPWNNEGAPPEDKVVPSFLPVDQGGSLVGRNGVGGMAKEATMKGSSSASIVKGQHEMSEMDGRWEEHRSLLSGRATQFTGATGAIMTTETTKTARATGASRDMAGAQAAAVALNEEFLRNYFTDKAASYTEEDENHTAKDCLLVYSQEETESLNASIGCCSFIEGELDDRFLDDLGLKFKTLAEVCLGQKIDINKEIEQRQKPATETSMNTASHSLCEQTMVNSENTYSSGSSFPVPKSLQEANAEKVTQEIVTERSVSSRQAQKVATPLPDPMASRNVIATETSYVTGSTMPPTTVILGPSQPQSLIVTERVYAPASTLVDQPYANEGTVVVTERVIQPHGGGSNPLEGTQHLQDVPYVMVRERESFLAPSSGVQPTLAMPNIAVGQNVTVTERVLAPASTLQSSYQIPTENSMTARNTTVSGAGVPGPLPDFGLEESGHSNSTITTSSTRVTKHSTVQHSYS
UniProt P35222: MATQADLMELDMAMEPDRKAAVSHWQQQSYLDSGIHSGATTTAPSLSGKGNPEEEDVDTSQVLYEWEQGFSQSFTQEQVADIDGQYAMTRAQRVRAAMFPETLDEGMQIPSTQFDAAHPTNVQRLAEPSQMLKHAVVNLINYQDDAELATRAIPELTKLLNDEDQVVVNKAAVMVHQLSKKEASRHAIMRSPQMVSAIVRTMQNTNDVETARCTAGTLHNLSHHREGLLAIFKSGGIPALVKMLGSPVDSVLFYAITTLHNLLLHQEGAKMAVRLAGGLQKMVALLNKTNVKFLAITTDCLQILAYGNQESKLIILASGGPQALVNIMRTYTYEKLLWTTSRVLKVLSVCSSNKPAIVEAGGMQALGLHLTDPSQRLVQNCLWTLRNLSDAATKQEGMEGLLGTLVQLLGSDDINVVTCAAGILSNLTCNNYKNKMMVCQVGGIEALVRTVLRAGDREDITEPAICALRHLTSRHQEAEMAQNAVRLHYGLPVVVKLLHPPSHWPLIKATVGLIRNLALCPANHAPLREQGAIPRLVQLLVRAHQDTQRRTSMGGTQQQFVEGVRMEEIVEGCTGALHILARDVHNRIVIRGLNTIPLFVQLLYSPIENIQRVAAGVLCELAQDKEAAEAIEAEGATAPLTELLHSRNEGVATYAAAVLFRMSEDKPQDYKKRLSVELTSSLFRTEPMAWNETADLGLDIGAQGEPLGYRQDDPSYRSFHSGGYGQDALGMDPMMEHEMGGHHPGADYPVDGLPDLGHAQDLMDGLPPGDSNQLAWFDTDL

What was measured:
Assay in all cases: proximity labelling; APEX2 fused to Merlin in M10G cells; 0.1mg/ml doxycycline 24 hours; 0.5mM biotin-phenol 30 minutes at 37°C, 1mM H2O2 on ice for 30 seconds; streptavidin pulldown and proteomic mass spectrometry (n=3/condition)
[1] = molecular target: Merlin^WT with C-terminal FLAG and APEX2 tags (Merlin^FLAG-APEX2, wildtype) (human) (UniProt P35240)
[2] = molecular target: Merlin^A211D with C-terminal FLAG and APEX2 tags (human) (UniProt P35240)
[3] = molecular target: Merlin^S13D (phospho-mimetic) FLAG-APEX2 construct (human) (UniProt P35240)
[4] = molecular target: Merlin^L46R with C-terminal FLAG and APEX2 tags (human) (UniProt P35240)
[5] = molecular target: Merlin^S13A (unphosphorylatable) FLAG-APEX2 construct (human) (UniProt P35240)
[6] = molecular target: Merlin^WT with C-terminal FLAG and APEX2 tags (Merlin^FLAG-APEX2, wildtype) (human) (UniProt P35240); remark: listed apart in the source

Question: AMOTL2 (from UniProt Q9Y2J4 1-779) was tested. Which binding [1] did it give?
Answer: The binding was “binds”.

Question: How did the binding [1] turn out when DSG2 (from UniProt Q14126 50-1118) was run?
Answer: The binding was “binds”.

Question: For β-catenin (from UniProt P35222 1-781), which binding [2] is on record?
Answer: Its binding is “binds”.

Question: What about the binding [3] of the same molecule?
Answer: The binding was “binds”.

Question: And the binding [4]?
Answer: The binding was “no binding”.

Question: And the binding [5]?
Answer: The binding was “no binding”.

Question: What about the binding [1] of the same molecule?
Answer: Its binding is “binds”.

B1: AMOTL1 (protein, UniProt Q8IY63 1-956)
chain: MWRAKLRRGTCEPAVKGSPSACYSPSSPVQVLEDSTYFSPDFQLYSGRHETSALTVEATSSIREKVVEDPLCNFHSPNFLRISEVEMRGSEDAAAGTVLQRLIQEQLRYGTPTENMNLLAIQHQATGSAGPAHPTNNFSSTENLTQEDPQMVYQSARQEPQGQEHQVDNTVMEKQVRSTQPQQNNEELPTYEEAKAQSQFFRGQQQQQQQQGAVGHGYYMAGGTSQKSRTEGRPTVNRANSGQAHKDEALKELKQGHVRSLSERIMQLSLERNGAKQHLPGSGNGKGFKVGGGPSPAQPAGKVLDPRGPPPEYPFKTKQMMSPVSKTQEHGLFYGDQHPGMLHEMVKPYPAPQPVRTDVAVLRYQPPPEYGVTSRPCQLPFPSTMQQHSPMSSQTSSASGPLHSVSLPLPLPMALGAPQPPPAASPSQQLGPDAFAIVERAQQMVEILTEENRVLHQELQGYYDNADKLHKFEKELQRISEAYESLVKSTTKRESLDKAMRNKLEGEIRRLHDFNRDLRDRLETANRQLSSREYEGHEDKAAEGHYASQNKEFLKEKEKLEMELAAVRTASEDHRRHIEILDQALSNAQARVIKLEEELREKQAYVEKVEKLQQALTQLQSACEKREQMERRLRTWLERELDALRTQQKHGNGQPANMPEYNAPALLELVREKEERILALEADMTKWEQKYLEESTIRHFAMNAAATAAAERDTTIINHSRNGSYGESSLEAHIWQEEEEVVQANRRCQDMEYTIKNLHAKIIEKDAMIKVLQQRSRKDAGKTDSSSLRPARSVPSIAAATGTHSRQTSLTSSQLAEEKKEEKTWKGSIGLLLGKEHHEHASAPLLPPPPTSALSSIASTTAASSAHAKTGSKDSSTQTDKSAELFWPSMASLPSRGRLSTTPAHSPVLKHPAAKGTAEKLENSPGHGKSPDHRGRVSSLLHKPEFPDGEMMEVLI
Question: Which binding [6] does the source give for B1 here?
Answer: Its binding is “binds”.
